Assay results from patent US20130029334A1, “mRNA As Biomarkers For Liver Injury or Other Liver Perturbations” (priority 2010, published 2013).

System: rats
Assay: Sucrose density gradient fractionation of plasma 14,000xg pellet with qPCR and electron microscopy
Format: in vivo, rat
Settings: certain density fractions, most notably 1.07 and 1.25 g/mL; DGAL-treated rats

In the case of `N[C@H]1C(O)O[C@H](CO)[C@H](O)[C@@H]1O` (stereo partly drawn) [DGAL, D-(+)-galactosamine], the mean microparticle diameter is reported as “increase in mean microparticle diameter”.
